Test results from PubChem BioAssay AID624297 (National Center for Advancing Translational Sciences (NCATS), 2012).
Out of some 340,000 compounds screened, about 6,200 (1.8%) were called active. The inconclusive results got no clear call from the source; some entries with a clear call stand among them for comparison. Calls follow the shape of the dose curve; as a rule, active = well fitted activation curve with a large enough effect; inconclusive = small, poorly fitted or top-dose-only effect; inactive = no such curve, though single readings can be large or run the other way. Potencies beside an inconclusive call are fits to weak or partial responses and may not hold up.

Assay: A quantitative high throughput screen for small molecules that induce DNA re-replication in SW480 colon adenocarcinoma cells. Also: nearly all actives have a fitted effect of over 55% in size. As to re-replication activation: % of control where 0% means no effect.
Settings: Hoechst DNA content imaging, 48 h; re-replication activation: at 46.1 µM (top of the series) unless noted
In short: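 Treated cells incubate 48 hr (37 C, 5% CO2), are stained 40 min with Hoechst, and nuclear fluorescence is enumerated; a rise in nuclei with high DNA signal marks re-replication.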
Potency is read from the fitted curve at half-maximal effect.

Which Potency does the source give for `CCNc1ccc(Br)cc(C(=O)/C=C/c2ccc(Cl)cc2Cl)c1=O` here?
The Potency was inconclusive: 25.9 µM [activator, single point].

With `CCCCS(=O)(=O)N1CCCC(C(=O)Oc2ccc(Cl)cc2)C1` (stereo not given) as the molecule, how does the Potency read?
The Potency was inconclusive: 32.6 µM [activator, partial curve, poor fit].

With `Cc1cccc(-n2c(=O)[nH]c3c(C(N)=O)nc(C(C)C)nc32)c1` as the molecule, how does the Potency read?
The Potency was inconclusive: 20.6 µM [activator, partial curve, poor fit].

Which “re-replication activation” value does the source give for `O=[N+]([O-])c1ccc(N2CCc3ccccc3C2)cc1` here?
The value was inactive: -4.57%.

With `COc1cccc(C(=O)N2CCCN(C)CC2)c1OC` as the molecule, how does the “re-replication activation” value read?
The value was inactive: -14.2%.

Which Potency does the source give for `COCC(=O)NNC(=O)Cc1ccc(Cl)cc1` here?
The Potency was inconclusive: 4.11 µM [activator, full curve, poor fit].

For `CC(=O)Nc1cccc(C(=O)/C=C/c2ccc(F)cc2)c1`, which Potency is on record?
Its Potency is inconclusive: 25.9 µM [activator, single point].

For `O=C(CCCOc1ccc(Cl)cc1Cl)Nc1cccnc1`, which “re-replication activation” value is on record?
The value was inactive: -4.55%.

With `COC(=O)C1N[C@@H]([C@@H](NC(=O)COc2ccccc2)C(=O)NCc2ccc(OC)cc2)SC1(C)C` (stereo not given in full) as the molecule, how does the “re-replication activation” value read?
The value was inactive: 15.6%.

Which re-replication activation does the source give for `O=C(O)c1cccc(N2C(=O)c3cc([N+](=O)[O-])cc4cc([N+](=O)[O-])cc(c34)C2=O)c1` here?
Its re-replication activation is inconclusive: -0.731% [activator].

For `Cc1nc(N(C)Cc2ccccc2)c2c(C)c(C)sc2n1`, which Potency is on record?
The Potency was inconclusive: 29.1 µM [activator, single point].

Which “re-replication activation” value does the source give for `O=C1c2cccc3cccc(c23)C(=O)N1c1ccccc1Cl` here?
The value was inactive: -3.44%.

For `COCC1CCCCN1C(=O)c1cc(COc2ccc3ncccc3c2)on1` (stereo not given), which “re-replication activation” value is on record?
The value was inactive: -7%.

With `O=C(Cc1ccsc1)NCC(=O)Nc1ccccc1Br` as the molecule, how does the “re-replication activation” value read?
Its value is inactive: -2.07%.

Which Potency does the source give for `CC(C)(C)OC(=O)N(CCc1ccccc1)Cc1ccccc1OCc1ccc(NC(=O)C2CCCC2)cc1` here?
Its Potency is inconclusive: 25.9 µM [activator, partial curve, poor fit].

With `COc1ccc(-c2nnc(SCC(=O)Nc3ncc(C)s3)n2-c2ccccc2)cc1OC` as the molecule, how does the Potency read?
The Potency was active: 16.4 µM.

With `CS(=O)(=O)NNC(=O)c1csc(Cc2c(Cl)sc3ccc(Cl)cc23)n1` as the molecule, how does the “re-replication activation” value read?
The value was inactive: 14.8%.

For `COc1ccc(N2CC(C(=O)Nc3nc4ccc(F)cc4s3)CC2=O)c(OC)c1` (stereo not given), which “re-replication activation” value is on record?
The value was inactive: -2.36%.

With `CCOC(=O)CSc1nc2sc3c(c2c(=O)n1-c1ccccc1)CCN(C)C3` as the molecule, how does the Potency read?
Its Potency is inconclusive: 14.6 µM [activator, partial curve, poor fit].

With `Fc1cccc(Cl)c1CN1CCN(c2nc3ccccc3s2)CC1` as the molecule, how does the “re-replication activation” value read?
The value was inactive: 11.5%.

Which “re-replication activation” value does the source give for `CN(C)CCOCCOc1ccccc1-c1ccccc1` here?
The value was inactive: -3.39%.

For `COc1ccc(C(=O)c2cc([N+](=O)[O-])ccc2N2CCN(C)CC2)cc1`, which Potency is on record?
The Potency was inconclusive: 11.6 µM [activator, partial curve, poor fit].

For `CC(C)c1ccc(C2c3[nH]c4ccccc4c3C[C@H]3C(=O)N(c4ccccc4C(=O)N4CCC(C(=O)O)CC4)C(=O)N23)cc1` (stereo not given in full), which “re-replication activation” value is on record?
Its value is inactive: 18.9%.

For `NC(=O)c1nsc(C(=O)N(c2ccccc2)C(C(=O)NC2CCCC2)c2cccs2)c1N` (stereo not given), which Potency is on record?
The Potency was inconclusive: 29.1 µM [activator, single point].

For `O=C(Nc1nc(-c2ccccc2)cs1)C1CCCN(S(=O)(=O)c2ccccc2)C1` (stereo not given), which Potency is on record?
The Potency was inconclusive: 18.4 µM [activator, partial curve, poor fit].

For `O=C(NC1CCSc2ccccc21)c1cccc(Br)c1` (stereo not given), which Potency is on record?
The Potency was inconclusive: 20.6 µM [activator, partial curve, poor fit].

Which Potency does the source give for `Cc1ccccc1OCC(=O)N(Cc1cccc(F)c1)C1CCS(=O)(=O)C1` (stereo not given) here?
The Potency was inconclusive: 0.184 µM [activator, full curve].

With `O=C1C=C(c2cc3ccccc3s2)C[C@@H](c2ccc(F)cc2)C1` as the molecule, how does the “re-replication activation” value read?
The value was inactive: -0.74%.

Which Potency does the source give for `CC(=O)c1cccc(NC(=O)C(C)N(C)CC(=O)Nc2ccc(Cl)cc2)c1` (stereo not given) here?
Its Potency is inconclusive: 1.03 µM [activator, full curve, poor fit].

Which “re-replication activation” value does the source give for `Nc1nc(/C(=C/CC(=O)O)C(=O)NC2C(=O)N3C(C(=O)O)=CCSC23)cs1` (stereo not given) here?
The value was inactive: -3.24%.

Which “re-replication activation” value does the source give for `Cc1ccc([C@@H]2CC=C(C(=O)O)[C@H](c3cccc(Cl)c3)N2S(=O)(=O)c2ccccc2C)cc1` here?
Its value is inactive: 3.11%.

With `Nc1cccc2c1C(=O)N(CC(=O)NC13CC4CC(CC(C4)C1)C3)C2=O` as the molecule, how does the Potency read?
The Potency was inconclusive: 20.6 µM [activator, single point].

With `O=C(/C=C/c1ccc(F)cc1)Nc1cc(S(=O)(=O)N2CCOCC2)ccc1N1CCCC1` as the molecule, how does the Potency read?
The Potency was inconclusive: 29.1 µM [activator, single point].

Which Potency does the source give for `CN(c1ccccc1)S(=O)(=O)c1cccc(NC(=O)CCNC(=O)c2ccc([N+](=O)[O-])cc2)c1` here?
Its Potency is inconclusive: 16.4 µM [activator, partial curve, poor fit].

With `Cc1nn(CC(=O)N2c3ccccc3NC(=O)C2(C)C)c(C)c1[N+](=O)[O-]` as the molecule, how does the “re-replication activation” value read?
Its value is inactive: 21.7%.

For `CC(=O)Nc1ccccc1Nc1cc(C#N)c(C#N)cc1[N+](=O)[O-]`, which Potency is on record?
Its Potency is inconclusive: 9.2 µM [activator, partial curve, poor fit].

With `COc1ccc(Br)cc1S(=O)(=O)N1CCN=C1c1ccccc1` as the molecule, how does the “re-replication activation” value read?
The value was inactive: 13.7%.

Which Potency does the source give for `COc1ccccc1/C=C/C1=NC(=C\N(C)C)/C(=O)O1` here?
The Potency was inconclusive: 29.1 µM [activator, single point].

With `Cc1cc(N2CCOCC2)nc(SCc2c(Cl)cccc2Cl)n1` as the molecule, how does the Potency read?
Its Potency is inconclusive: 14.6 µM [activator, partial curve, poor fit].

Which Potency does the source give for `CCC(=O)Nc1ccc(Cl)c(NC(=O)C(C)C)c1` here?
The Potency was inconclusive: 20.6 µM [activator, single point].

For `CCSc1nnc(-c2c[nH]c3ccccc23)o1`, which “re-replication activation” value is on record?
Its value is inactive: -6.46%.

With `O=C(COC(=O)C1CCCCC1)Nc1ccccc1OC(F)F` as the molecule, how does the Potency read?
The Potency was inconclusive: 20.6 µM [activator, partial curve, poor fit].

With `CCOc1cccc2cc(-c3nnc(NCc4ccc5c(c4)OCO5)s3)c(=O)oc12` as the molecule, how does the Potency read?
The Potency was inconclusive: 2.31 µM [activator, full curve].

Which “re-replication activation” value does the source give for `COc1cccc(CN(C)C(=O)Cc2c[nH]c3ccccc23)c1OC` here?
The value was inactive: -9.52%.

Which Potency does the source give for `COc1ccc(C#Cc2c(-c3ccccc3)n(C)c3ccccc23)cc1` here?
The Potency was inconclusive: 29.1 µM [activator, single point].
